Laboratory results taken from PubChem BioAssay AID504834 (National Center for Advancing Translational Sciences (NCATS), 2011).
Several values for one entry are separate records, joined by “and”; a condition that tells them apart may be missing. Equal values may be shown once. The campaign covered roughly 320,000 compounds. About 22,000 (6.9%) were called active. This list was built around the results that the source calls inconclusive (neither active nor inactive); the mix of calls is not that of the screen. Calls come from the whole dose curve; as a rule, active = well fitted inhibition curve with a large enough effect; inconclusive = small, poorly fitted or top-dose-only effect, or another doubt; inactive = no such curve, though single readings can be large or run the other way. Potencies beside an inconclusive call are fits to weak or partial responses and may not hold up.
% is set by controls: 0 for no effect and ±100 for the full control effect; potency is the fitted concentration of half-maximal effect.

Test: Primary qHTS for delayed death inhibitors of the malarial parasite plastid, 96 hour incubation
Conditions: P. falciparum luciferase reporter growth; series mostly up to 28.7 µM; activity change, negative = inhibition: at the top concentration
Method in brief: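 P. falciparum expressing integrated firefly luciferase grown in erythrocytes (2% hematocrit, 0.05% parasitemia final) with compounds for 96 hours at 37 C, 5% CO2. Growth inhibition read as loss of luminescence after adding luciferase detection reagent.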
For CCc1c(C)sc(NC(=O)c2cc(C)no2)c1C#N, the Potency was inconclusive: 10.4 µM [inhibitor, single point].
With COC(=O)c1cc(NC(=O)CSc2nnc(N)s2)ccc1Cl the Potency was inconclusive: 11.7 µM [inhibitor, partial curve].
For COc1ccc2c(CC(=O)Nc3c(C)n(C)n(-c4ccccc4)c3=O)coc2c1, the Potency was inconclusive: 11.7 µM [inhibitor, single point].
With O=C(NCc1ccc2c(c1)OCO2)C1CCN(C(=O)Nc2ccc(Cl)cc2)CC1 the “activity change, negative = inhibition” value was inactive: -10.2%.
With O=C(CN(c1ccc(F)cc1)S(=O)(=O)c1ccccc1)NC1CC2CCC1C2 (stereo not given) the Potency was inconclusive: 11.7 µM [inhibitor, partial curve, poor fit].
For Cc1cc(C)cc(NC(=S)Nc2cccc3cnccc23)c1, the Potency was inconclusive: 1.85 µM [inhibitor, partial curve, poor fit].
For CC1(c2ccc3noc(-c4ccc(F)cc4)c3c2)OCCO1, the Potency was inconclusive: 11.7 µM [inhibitor, single point].
For COc1ccc(S(=O)(=O)Cc2ccc(C(=O)N3CCCC3)o2)cc1, the Potency was inconclusive: 0.0657 µM [inhibitor, full curve].
In the case of O=C(NNC(=S)NCc1ccco1)c1ccc(S(=O)(=O)N2CCOCC2)cc1, the Potency was inconclusive: 0.0165 µM [inhibitor, full curve, poor fit].
With COc1cc(S(=O)(=O)N2CCOCC2)ccc1NC(=O)c1cc2c(s1)CCC2 the Potency was inconclusive: 13.1 µM [inhibitor, single point].
In the case of O=C(NCCOC(=O)c1cccs1)c1cccnc1, the Potency was inconclusive: 9.28 µM [inhibitor, partial curve, poor fit].
In the case of CC(=O)Nc1sc(N/N=C\c2ccccc2)nc1-c1cccs1, the Potency was inconclusive: 18.5 µM [inhibitor, single point].
For O=C(Nc1ccc(F)c(F)c1)C1CCN(S(=O)(=O)c2cccc3nonc23)CC1, the Potency was inconclusive: 10.4 µM [inhibitor, single point].
For O=C(c1ccc(Cl)c(S(=O)(=O)N2CCCC2)c1)N1CCN(c2ccccn2)CC1, the Potency was inconclusive: 14.7 µM [inhibitor, partial curve, poor fit].
With CC(C)(C)c1cc(OC(=O)c2ccccc2F)ccc1O the “activity change, negative = inhibition” value was inactive: -16.4%.
With O=C(O)Cn1cc(/C=C/[N+](=O)[O-])c2ccccc21 the Potency was inconclusive: 11.7 µM [inhibitor, single point].
In the case of COc1ccc(S(=O)(=O)Nc2ccc(F)cc2)cc1N(C)S(=O)(=O)c1ccc(Cl)cc1, the “activity change, negative = inhibition” value was inactive: -20.2%.
For CC1CCCC(NC(=O)CN(C)S(=O)(=O)c2cccc3cccnc23)C1C (stereo not given), the “activity change, negative = inhibition” value was inactive: 11.4%.
For Cc1ccc(/C(O)=C2/C(=O)C(=O)N(CC(=O)O)C2c2ccc([N+](=O)[O-])cc2)cc1 (stereo not given), the Potency was inconclusive: 14.7 µM [inhibitor, single point].
In the case of Cc1cc(OCCN2CC2)c2ccccc2n1, the Potency was active: 10.4 µM.
In the case of COc1ccc(CCNC(=O)CCS(=O)(=O)c2ccc3c(c2)NC(=O)CS3)cc1OC, the Potency was inconclusive: 13.1 µM [inhibitor, single point].
In the case of O=C(COC(=O)CSc1ccccc1)NCCNC(=O)COC(=O)CSc1ccccc1, the “activity change, negative = inhibition” value was inactive: 32%.
In the case of COc1ccc(-c2nnc(SC(C)C(=O)Nc3nccs3)n2Cc2ccccc2)cc1OC (stereo not given), the Potency was inconclusive: 18.5 µM [inhibitor, single point].
For O=C(Nc1ccc(Cl)cc1)c1cccc(OC(=S)N2CCOCC2)c1, the Potency was inconclusive: 0.928 µM [inhibitor, partial curve, poor fit].
With COc1ccc2c(c1)OC[C@H]1[C@H]2N2C(=O)CN(Cc3ccc(C)cc3)C(=O)[C@@]2(C)[C@H]1c1ccccc1 the Potency was inconclusive: 1.47 µM [inhibitor, full curve, poor fit].
With O=C(Nc1ccccc1F)c1ccccc1-c1ccccc1 the Potency was inconclusive: 18.5 µM [inhibitor, single point].
For C=CCn1c(CCNC(=O)c2ccccc2F)nnc1SCc1nc2ccccc2c(=O)[nH]1, the Potency was inconclusive: 5.86 µM [inhibitor, partial curve, poor fit].
In the case of O=C(CCCN1CCC(O)(c2cccc(C(F)(F)F)c2)CC1)c1ccc(F)cc1, the Potency was active: 6.75 µM and active: 5.86 µM.
In the case of CC(C)c1cc2c(c(O)c1O)[C@@]13CCCC(C)(C)C1CC2OC3=O (stereo not given in full), the Potency was inconclusive: 0.0657 µM [inhibitor, full curve].
For COc1cc(-c2nnc(SCC(=O)NC3CCCC3)n2C)cc(OC)c1O, the Potency was inconclusive: 11.7 µM [inhibitor, single point].
In the case of O=C(O)c1ccc(NC(=O)c2ccccc2NC(=O)c2cccc(F)c2)cc1, the Potency was inconclusive: 11.7 µM [inhibitor, partial curve].
For Cc1ccc(NS(=O)(=O)c2ccc(C)c(C(=O)NCC(c3ccccc3)N(C)C)c2)cc1 (stereo not given), the “activity change, negative = inhibition” value was inactive: -20.3%.
For O=C(CCN1C(=O)/C(=C/c2ccc(Cl)cc2)SC1=S)NCCCn1ccnc1, the Potency was inconclusive: 18.5 µM [inhibitor, single point].
For CN(CC(=O)Nc1ccc(F)c(F)c1F)C(=O)c1ccc2c(c1)NC(=O)CS2, the Potency was inconclusive: 11.7 µM [inhibitor, single point].
For COc1ccccc1N1CCN(C(CNS(=O)(=O)c2cccs2)c2cccnc2)CC1 (stereo not given), the Potency was inconclusive: 8.28 µM [inhibitor, partial curve, poor fit].
For CC(=O)Oc1ccc2ccccc2c1C(NC(=O)Cc1ccccc1)c1ccccc1 (stereo not given), the Potency was inconclusive: 3.29 µM [inhibitor, full curve].
For O=C(c1ccc(Cl)c(NC2=NC3CS(=O)(=O)CC3S2)c1)N1CCN(c2ccccc2)CC1 (stereo not given), the Potency was inconclusive: 16.5 µM [inhibitor, single point].
For CCC(Oc1ccc(F)cc1)C(=O)N1CCCCCCC1 (stereo not given), the “activity change, negative = inhibition” value was inactive: 0%.
In the case of COCCNC(=O)[C@@]1(C)C=C[C@@H](Cc2ccccc2)N1C(=O)c1ccccc1, the “activity change, negative = inhibition” value was inactive: -14.7%.
With O=S(=O)(Nc1nccs1)c1ccc(F)cc1 the Potency was inconclusive: 10.4 µM [inhibitor, single point].
In the case of CS(=O)(=O)c1cccc(-c2nnc(NC(=O)CCS(=O)(=O)c3ccccc3)o2)c1, the Potency was inconclusive: 7.38 µM [inhibitor, partial curve].
For CN(C(=O)CN1C(=O)c2cccc(N)c2C1=O)C1CCCCC1, the “activity change, negative = inhibition” value was inactive: -17.2%.
With CC(=O)OC1N=C(c2ccc(Cl)cc2)c2cc(Br)ccc2NC1=O (stereo not given) the Potency was inconclusive: 4.15 µM [inhibitor, single point].
With CCCCN1C2=C(C(=O)CCC2)C(c2ccc(Cl)c(Cl)c2)C2=C1c1ccccc1C2=O (stereo not given) the Potency was inconclusive: 1.47 µM [inhibitor, partial curve, poor fit].
For Cc1c(OCC(=O)C(C)(C)C)ccc2c3c(c(=O)oc12)CCCC3, the Potency was inconclusive: 0.586 µM [inhibitor, full curve, poor fit].
With O=[N+]([O-])c1cccc(/C([O-])=C(/C(=S)Nc2ccccc2)[n+]2ccccc2)c1 the Potency was inconclusive: 13.1 µM [inhibitor, single point].
In the case of COC(=O)C1CSc2[nH]c(=O)sc2C1c1ccc(OC)c(OC)c1 (stereo not given), the Potency was inconclusive: 11.7 µM [inhibitor, partial curve].
In the case of CC(C)CCn1nnnc1CN1CCN(c2ccc(F)cc2)CC1, the Potency was inconclusive: 10.4 µM [inhibitor, single point].
In the case of COc1ccccc1C(=O)NCCC(=O)Nc1ccncc1, the “activity change, negative = inhibition” value was inactive: -2.19%.
In the case of O=c1c2ccccc2c(C=NCc2ccccn2)c(O)n1-c1ccccc1Cl, the Potency was inconclusive: 18.5 µM [inhibitor, single point].
In the case of Cc1ccc(NC(=O)CSc2nnc(-c3cnccn3)n2C)cc1C, the Potency was inconclusive: 18.5 µM [inhibitor, single point].
For CCC1Sc2ccc(S(=O)(=O)Nc3cc(OC)cc(OC)c3)cc2NC1=O (stereo not given), the Potency was inconclusive: 5.22 µM [inhibitor, single point].
With CN1C2C=C3C(C#N)=C(N)C(C#N)(C#N)[C@@H](c4cccc(F)c4)[C@@H]3C1CC2 (stereo not given in full) the Potency was active: 0.657 µM.
In the case of COc1ccc(S(=O)(=O)Cc2ccc(C(=O)N3CCN(c4cc(C)ccc4C)CC3)o2)cc1, the Potency was active: 4.65 µM.
With Cc1cc(C)n(C(=O)c2nn(C)c(C)c2[N+](=O)[O-])n1 the “activity change, negative = inhibition” value was inactive: 16.9%.
For CCOc1ccc(NC(=O)CSc2nncn2C)cc1, the “activity change, negative = inhibition” value was inactive: 30.9%.
For O=C1NC(=O)C(c2ccc(Cl)cc2)N1 (stereo not given), the Potency was inconclusive: 18.5 µM [inhibitor, single point].
For CCOP(=O)(OCC)C(Nc1cccc(C(F)(F)F)c1)c1ccc(C)cc1 (stereo not given), the Potency was inconclusive: 18.5 µM [inhibitor, single point].
In the case of COc1ccc(N/C=C\C(=O)c2ccc(C)cc2)cc1OC, the Potency was inconclusive: 11.7 µM [inhibitor, single point].
For O=C(CNC(=O)c1cccc([N+](=O)[O-])c1)NC1CCCc2ccccc21 (stereo not given), the Potency was inconclusive: 18.5 µM [inhibitor, single point].
For CCCC[C@@H](CNC)NC[C@H](Cc1ccc(O)cc1)NCCc1ccc(OCC)cc1, the Potency was active: 0.928 µM.
With CC1CN(C(=O)COC(=O)c2c(Cl)cccc2Cl)CC(C)O1 (stereo not given) the Potency was inconclusive: 9.28 µM [inhibitor, partial curve, poor fit].
In the case of Cc1ccc2c(c1)-c1c(cnn1CC(=O)N(Cc1ccco1)C1CCCCC1)CO2, the “activity change, negative = inhibition” value was inactive: 22.2%.
In the case of COc1ccc(C(=O)OCC(=O)N(C)C2CCS(=O)(=O)C2)cc1S(=O)(=O)N(C)Cc1ccccc1 (stereo not given), the Potency was inconclusive: 18.5 µM [inhibitor, single point].
In the case of COC(=O)[C@@]1(Cc2ccc(F)cc2)[C@H]2c3cc(C(=O)N(C)C)n(CCSCCO)c3C[C@H]2CN1C(=O)c1ccccc1, the Potency was active: 13.1 µM.
